Results deposited as PubChem BioAssay AID1259254 (NCATS, 2017)
Assay: 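Genome-wide screen for genes that prevent DNA re-replication in cancer cells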 (primary screen). System: human HCT116 colorectal cancer cells. Reagent: single siRNA against human genes. Duration: 3 days. Detection: 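Nuclei stained with Hoechst and imaged; cell-cycle phase assigned by DNA content; G2 share scaled per plate, non-targeting siRNA 0%, GMNN siRNA 100%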. Direction: G2 robust z-score and G2 cells, % of GMNN control: higher = more G2 cells, more excess DNA replication; raw share of cells in G2: higher = larger share of cells with G2 DNA content. Hit rule: 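Active siRNAs have a G2 robust z of 5 or more median absolute deviations over the median, which in these data means about 38% or higher of GMNN control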.
Here is a random part of about 59,000 reagents. Of all reagents, about 1,550 (2.6%) got an active call. 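G2 share is only a proxy for re-replication; each gene was hit by three separate siRNAs, and active genes were retested.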 The raw values are shown without normalisation. Reagents against one gene are numbered here. Not stated in the record: the amount of reagent.

The first 4 entries as a preview:
no.	Target gene	siRNA no.	G2 robust z-score	G2 cells, % of GMNN control	raw share of cells in G2 (%)	activity call
1	PACSIN1 (protein kinase C and casein kinase substrate in neurons 1)	1	-0.674	-1.78	4.55	inactive
2	PACSIN1 (protein kinase C and casein kinase substrate in neurons 1)	2	-1.04	-4.32	4.24	inactive
3	PACSIN1 (protein kinase C and casein kinase substrate in neurons 1)	3	4.16	32.3	14	inactive
4	DHX58 (DExH-box helicase 58)	1	-0.625	-1.43	3.7	inactive

Results, repeating the preview:
no.	Target gene	siRNA no.	G2 robust z-score	G2 cells, % of GMNN control	raw share of cells in G2 (%)	activity call
1	PACSIN1 (protein kinase C and casein kinase substrate in neurons 1)	1	-0.674	-1.78	4.55	inactive
2	PACSIN1 (protein kinase C and casein kinase substrate in neurons 1)	2	-1.04	-4.32	4.24	inactive
3	PACSIN1 (protein kinase C and casein kinase substrate in neurons 1)	3	4.16	32.3	14	inactive
4	DHX58 (DExH-box helicase 58)	1	-0.625	-1.43	3.7	inactive
5	DHX58 (DExH-box helicase 58)	2	1.11	10.8	10.1	inactive
6	DHX58 (DExH-box helicase 58)	3	0.21	4.45	5.92	inactive
7	MED1 (mediator complex subunit 1)	1	0.347	5.41	6.84	inactive
8	MED1 (mediator complex subunit 1)	2	3.31	26.3	14.7	inactive
9	MED1 (mediator complex subunit 1)	3	-0.481	-0.417	4.01	inactive
10	OGFR (opioid growth factor receptor)	1	2.42	20	10.7	inactive
11	OGFR (opioid growth factor receptor)	2	-0.465	-0.303	6.25	inactive
12	OGFR (opioid growth factor receptor)	3	1.44	13.1	8.53	inactive
13	ARF5 (ARF GTPase 5)	1	-1.23	-5.67	2.79	inactive
14	ARF5 (ARF GTPase 5)	2	-0.578	-1.1	4.68	inactive
15	ARF5 (ARF GTPase 5)	3	0.767	8.36	7.11	inactive
16	BTNL3 (butyrophilin like 3)	1	-0.848	-3	5.29	inactive
17	BTNL3 (butyrophilin like 3)	2	-1.34	-6.43	2.9	inactive
18	BTNL3 (butyrophilin like 3)	3	-0.0509	2.61	4.68	inactive
19	EREG (epiregulin)	1	-0.239	1.28	5.7	inactive
20	EREG (epiregulin)	2	-0.00418	2.94	6.38	inactive
21	EREG (epiregulin)	3	3.21	25.6	12.8	inactive
22	OR5B3 (olfactory receptor family 5 subfamily B member 3)	1	-0.153	1.89	4.35	inactive
23	OR5B3 (olfactory receptor family 5 subfamily B member 3)	2	-0.103	2.24	4.27	inactive
24	OR5B3 (olfactory receptor family 5 subfamily B member 3)	3	-0.141	1.97	3.79	inactive
25	WASH6P (WASP family homolog 6, pseudogene)	1	-0.714	-2.06	3.75	inactive
26	WASH6P (WASP family homolog 6, pseudogene)	2	-0.579	-1.11	3.39	inactive
27	WASH6P (WASP family homolog 6, pseudogene)	3	3.83	29.9	16.4	inactive
28	LMX1A (LIM homeobox transcription factor 1 alpha)	1	0.759	8.31	8.76	inactive
29	LMX1A (LIM homeobox transcription factor 1 alpha)	2	2.99	24	14.6	inactive
30	LMX1A (LIM homeobox transcription factor 1 alpha)	3	-1	-4.08	1.85	inactive
31	MAPRE1 (microtubule associated protein RP/EB family member 1)	1	0.811	8.67	6.42	inactive
32	MAPRE1 (microtubule associated protein RP/EB family member 1)	2	2.33	19.4	12.6	inactive
33	MAPRE1 (microtubule associated protein RP/EB family member 1)	3	1.59	14.1	9.97	inactive
34	USP9X (ubiquitin specific peptidase 9 X-linked)	1	0.396	5.76	7.57	inactive
35	USP9X (ubiquitin specific peptidase 9 X-linked)	2	0.811	8.67	7.98	inactive
36	USP9X (ubiquitin specific peptidase 9 X-linked)	3	-0.755	-2.35	3.04	inactive
37	KIF21B (kinesin family member 21B)	1	-0.203	1.54	4.67	inactive
38	KIF21B (kinesin family member 21B)	2	-0.218	1.43	6.94	inactive
39	KIF21B (kinesin family member 21B)	3	-0.611	-1.33	3.41	inactive
40	TCAF1 (TRPM8 channel associated factor 1)	1	0.594	7.15	8.56	inactive
41	TCAF1 (TRPM8 channel associated factor 1)	2	1.91	16.4	10.8	inactive
42	TCAF1 (TRPM8 channel associated factor 1)	3	-0.465	-0.301	3.3	inactive
43	G6PC2 (glucose-6-phosphatase catalytic subunit 2)	1	-0.555	-0.941	4.49	inactive
44	G6PC2 (glucose-6-phosphatase catalytic subunit 2)	2	-0.455	-0.233	4.23	inactive
45	G6PC2 (glucose-6-phosphatase catalytic subunit 2)	3	-0.291	0.918	3.77	inactive
46	PHF7 (PHD finger protein 7)	1	0.157	4.07	7.8	inactive
47	PHF7 (PHD finger protein 7)	2	-0.237	1.3	4.3	inactive
48	PHF7 (PHD finger protein 7)	3	0.553	6.86	6.78	inactive
49	ERO1B (endoplasmic reticulum oxidoreductase 1 beta)	1	-0.634	-1.5	5.77	inactive
50	ERO1B (endoplasmic reticulum oxidoreductase 1 beta)	2	0.74	8.17	7.37	inactive
51	ERO1B (endoplasmic reticulum oxidoreductase 1 beta)	3	0.129	3.88	5.95	inactive
52	CTSV (cathepsin V)	1	-0.27	1.07	5.93	inactive
53	CTSV (cathepsin V)	2	-0.667	-1.72	4.3	inactive
54	CTSV (cathepsin V)	3	-1.69	-8.94	0.575	inactive
55	NRM (nurim)	1	0.638	7.45	7.91	inactive
56	NRM (nurim)	2	-0.696	-1.93	3.34	inactive
57	NRM (nurim)	3	1.2	11.4	7.44	inactive
58	OSTCP3 (oligosaccharyltransferase complex subunit pseudogene 3)	1	-0.344	0.551	3.52	inactive
59	OSTCP3 (oligosaccharyltransferase complex subunit pseudogene 3)	2	-0.766	-2.42	2.01	inactive
60	OSTCP3 (oligosaccharyltransferase complex subunit pseudogene 3)	3	-0.74	-2.24	3.42	inactive
61	CRYGD (crystallin gamma D)	1	0.965	9.76	7.66	inactive
62	CRYGD (crystallin gamma D)	2	0.621	7.34	6.4	inactive
63	CRYGD (crystallin gamma D)	3	6.69	50.1	28.8	active
64	GALNT18 (polypeptide N-acetylgalactosaminyltransferase 18)	1	-1.31	-6.27	2.51	inactive
65	GALNT18 (polypeptide N-acetylgalactosaminyltransferase 18)	2	1.01	10	7.95	inactive
66	GALNT18 (polypeptide N-acetylgalactosaminyltransferase 18)	3	0.258	4.78	7.97	inactive
67	ATG16L2 (autophagy related 16 like 2)	1	-0.0482	2.63	5.2	inactive
68	ATG16L2 (autophagy related 16 like 2)	2	-0.203	1.54	3.48	inactive
69	ATG16L2 (autophagy related 16 like 2)	3	-0.0738	2.45	3.7	inactive
